# From patent US20040210041A1
# Chains of the proteins cited; added tags and fusions are not shown. Lines headed by an entry give the natural chain unless they say otherwise; changes in a name come on top. Residues count along the entry.
# UniProt P35968, residues 20-1356: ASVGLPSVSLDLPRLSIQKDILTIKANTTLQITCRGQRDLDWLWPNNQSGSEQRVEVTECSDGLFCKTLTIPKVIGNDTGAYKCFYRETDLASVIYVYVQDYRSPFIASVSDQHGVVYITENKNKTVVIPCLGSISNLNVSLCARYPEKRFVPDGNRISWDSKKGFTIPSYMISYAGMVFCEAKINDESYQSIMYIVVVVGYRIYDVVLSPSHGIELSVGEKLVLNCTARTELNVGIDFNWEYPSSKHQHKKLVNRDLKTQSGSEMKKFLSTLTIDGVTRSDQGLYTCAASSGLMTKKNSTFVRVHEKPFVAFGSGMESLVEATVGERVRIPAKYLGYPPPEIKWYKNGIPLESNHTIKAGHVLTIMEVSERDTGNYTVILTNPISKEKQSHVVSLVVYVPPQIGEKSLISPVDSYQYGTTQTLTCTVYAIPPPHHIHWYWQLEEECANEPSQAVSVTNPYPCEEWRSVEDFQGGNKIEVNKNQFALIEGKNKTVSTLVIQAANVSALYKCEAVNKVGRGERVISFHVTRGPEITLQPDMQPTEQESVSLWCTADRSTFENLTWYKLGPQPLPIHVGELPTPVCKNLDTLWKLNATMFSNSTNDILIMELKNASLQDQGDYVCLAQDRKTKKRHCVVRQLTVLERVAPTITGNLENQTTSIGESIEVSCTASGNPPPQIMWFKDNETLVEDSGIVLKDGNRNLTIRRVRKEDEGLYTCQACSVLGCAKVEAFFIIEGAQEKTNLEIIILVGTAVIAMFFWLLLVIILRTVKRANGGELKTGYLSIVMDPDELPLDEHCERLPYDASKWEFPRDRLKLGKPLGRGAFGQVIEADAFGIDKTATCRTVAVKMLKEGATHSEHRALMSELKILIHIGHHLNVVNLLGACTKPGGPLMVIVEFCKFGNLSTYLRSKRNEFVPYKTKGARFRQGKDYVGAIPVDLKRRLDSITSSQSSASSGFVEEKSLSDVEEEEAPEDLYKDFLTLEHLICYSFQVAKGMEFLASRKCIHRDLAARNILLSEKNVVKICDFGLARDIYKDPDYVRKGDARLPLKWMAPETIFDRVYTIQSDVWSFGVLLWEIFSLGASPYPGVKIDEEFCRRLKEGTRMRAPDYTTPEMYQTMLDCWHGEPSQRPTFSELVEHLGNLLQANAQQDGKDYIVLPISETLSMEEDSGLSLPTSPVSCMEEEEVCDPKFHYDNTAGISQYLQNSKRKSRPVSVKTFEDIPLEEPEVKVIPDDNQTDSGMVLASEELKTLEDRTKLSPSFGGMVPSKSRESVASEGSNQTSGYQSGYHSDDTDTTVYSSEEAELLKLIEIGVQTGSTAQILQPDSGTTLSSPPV
# UniProt P15692: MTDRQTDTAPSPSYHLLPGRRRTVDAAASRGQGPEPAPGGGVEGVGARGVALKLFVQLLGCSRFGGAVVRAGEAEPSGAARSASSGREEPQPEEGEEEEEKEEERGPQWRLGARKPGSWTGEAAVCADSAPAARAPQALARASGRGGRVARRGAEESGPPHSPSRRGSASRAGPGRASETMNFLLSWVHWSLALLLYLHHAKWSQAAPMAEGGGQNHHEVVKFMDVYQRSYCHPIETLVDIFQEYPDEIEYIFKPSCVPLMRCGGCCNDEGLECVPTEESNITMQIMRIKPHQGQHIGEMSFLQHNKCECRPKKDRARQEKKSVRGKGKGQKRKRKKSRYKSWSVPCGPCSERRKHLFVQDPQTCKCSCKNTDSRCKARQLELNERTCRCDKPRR
# No constants are given. Whether binding was seen depends on the method and setting. Some results given as binding are weak or reduced against the parent protein; the word gives no strength.
# Experiments:
# [1] = target: KDR (VEGFR-2), full-length receptor on cells (human) (UniProt P35968); test: peptide-conjugated microbubbles on KDR-transfected 293H cells with free dimer 1-1000 nM
# [2] = target: KDR/VEGF complex on KDR-transfected 293H cells (human) (UniProt P35968+P15692); test: peptide/125I-streptavidin complex on KDR- vs mock-transfected 293H cells with VEGF
binding [1],binding [2],Binder
binds,,AQDWYYDEILSMADQLRHAFLSGG (conjugated to microbubbles; derivative not described) [P13 conjugated to microbubbles]
,binds,AGPGPCKGYMPHQCWYMGTGGGK (Ac-; C-terminal Lys(Biotin-JJ)-NH2) [P30-XB/125I-streptavidin complex]
